Source: paper doi:10.1101/2024.05.20.594848
Results are given in words; binding and its absence hold for the method and conditions named. In cells and extracts the contact can be indirect. A yes stands for co-enrichment or nearness to the bait. Other partners may have been found.

By UniProt entry, the sequences of proteins in these tests, tags left out. Residues count along the entry.
UniProt P35441, residues 19-1170: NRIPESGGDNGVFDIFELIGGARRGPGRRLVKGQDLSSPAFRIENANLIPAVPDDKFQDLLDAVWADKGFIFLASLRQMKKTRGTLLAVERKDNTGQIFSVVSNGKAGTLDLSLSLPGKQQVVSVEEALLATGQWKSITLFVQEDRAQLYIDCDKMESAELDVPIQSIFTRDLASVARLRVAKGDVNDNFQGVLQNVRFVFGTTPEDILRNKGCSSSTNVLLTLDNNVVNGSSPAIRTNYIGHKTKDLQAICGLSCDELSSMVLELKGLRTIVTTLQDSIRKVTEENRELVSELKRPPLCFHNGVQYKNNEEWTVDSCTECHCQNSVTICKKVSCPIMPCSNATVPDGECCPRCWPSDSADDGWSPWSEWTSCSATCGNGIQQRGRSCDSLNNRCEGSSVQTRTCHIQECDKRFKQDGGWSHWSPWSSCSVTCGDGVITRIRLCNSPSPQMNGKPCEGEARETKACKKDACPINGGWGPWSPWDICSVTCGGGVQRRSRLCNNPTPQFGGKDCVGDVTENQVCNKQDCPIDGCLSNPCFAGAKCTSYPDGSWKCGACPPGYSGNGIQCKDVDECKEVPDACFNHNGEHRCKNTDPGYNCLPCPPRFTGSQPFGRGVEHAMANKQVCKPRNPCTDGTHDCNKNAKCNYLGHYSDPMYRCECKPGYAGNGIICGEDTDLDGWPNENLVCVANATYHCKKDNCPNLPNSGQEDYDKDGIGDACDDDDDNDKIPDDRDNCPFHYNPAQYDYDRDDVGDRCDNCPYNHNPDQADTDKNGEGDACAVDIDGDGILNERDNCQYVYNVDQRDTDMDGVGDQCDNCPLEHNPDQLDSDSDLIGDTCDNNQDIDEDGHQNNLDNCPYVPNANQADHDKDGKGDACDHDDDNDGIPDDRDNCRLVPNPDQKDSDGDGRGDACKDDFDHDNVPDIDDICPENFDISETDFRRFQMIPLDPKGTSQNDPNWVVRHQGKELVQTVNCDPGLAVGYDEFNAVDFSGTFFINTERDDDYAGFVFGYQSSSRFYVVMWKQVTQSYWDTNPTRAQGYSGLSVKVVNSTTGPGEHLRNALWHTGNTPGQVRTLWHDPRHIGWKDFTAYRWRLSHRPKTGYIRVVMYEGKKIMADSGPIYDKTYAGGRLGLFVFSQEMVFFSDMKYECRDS

Biological target: T1, recombinant extracellular domain of mouse DCIR1 (mDCIR1-ECD), chemically biotinylated (mouse) (UniProt Q923C7)
T1 sequence (chain, biotin (chemical, EZ-Link Sulfo-NHS-LC-Biotin)): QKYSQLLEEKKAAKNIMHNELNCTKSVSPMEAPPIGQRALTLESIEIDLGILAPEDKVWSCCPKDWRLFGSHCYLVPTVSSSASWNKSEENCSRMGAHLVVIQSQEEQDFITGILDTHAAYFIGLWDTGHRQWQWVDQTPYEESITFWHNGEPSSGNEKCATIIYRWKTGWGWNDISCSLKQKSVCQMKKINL
Test: affinity purification with mass spectrometry

binding: binds
Substance: Thrombospondin 1 (THBS1) (from UniProt P35441 19-1170)
